In paper PMC7615311 (Science (New York, N.Y.), 2023) one finds EC50 data, which are given here for one compound.

Broadly, the EC50 is the concentration that produces a half-maximal response.

For one assay, the system named is cortactin (CTTN). Briefly: decryptM, acetylation of HDAC6 substrate cortactin in HeLa cells. The class given is cell-based. Particulars: Homo sapiens, read-out: EC50 of enhanced acetylation of cortactin (CTTN).
Another assay concerns H2B1N and H2B1D. Briefly: cells. Particulars: Homo sapiens, HeLa, read-out: EC50 of acetylation of H2B1N and H2B1D.

As for `O=C(CCCCCCC(=O)Nc1ccccc1)NO` [vorinostat], the concentration for a half-maximal effect (EC50) was in the range of 50 to 90 nM with cortactin (CTTN); 1000 to 1500 nM in the assay on H2B1N and H2B1D.
